Measurements taken from the supplement of paper PMC10849652.
Some of the results follow.

The chains behind the UniProt entries cited, without tags or fusion partners. Where a name states a change or a piece, a line headed by the entry shows the natural chain unless it says otherwise.
UniProt P08514, whole entry, looked up: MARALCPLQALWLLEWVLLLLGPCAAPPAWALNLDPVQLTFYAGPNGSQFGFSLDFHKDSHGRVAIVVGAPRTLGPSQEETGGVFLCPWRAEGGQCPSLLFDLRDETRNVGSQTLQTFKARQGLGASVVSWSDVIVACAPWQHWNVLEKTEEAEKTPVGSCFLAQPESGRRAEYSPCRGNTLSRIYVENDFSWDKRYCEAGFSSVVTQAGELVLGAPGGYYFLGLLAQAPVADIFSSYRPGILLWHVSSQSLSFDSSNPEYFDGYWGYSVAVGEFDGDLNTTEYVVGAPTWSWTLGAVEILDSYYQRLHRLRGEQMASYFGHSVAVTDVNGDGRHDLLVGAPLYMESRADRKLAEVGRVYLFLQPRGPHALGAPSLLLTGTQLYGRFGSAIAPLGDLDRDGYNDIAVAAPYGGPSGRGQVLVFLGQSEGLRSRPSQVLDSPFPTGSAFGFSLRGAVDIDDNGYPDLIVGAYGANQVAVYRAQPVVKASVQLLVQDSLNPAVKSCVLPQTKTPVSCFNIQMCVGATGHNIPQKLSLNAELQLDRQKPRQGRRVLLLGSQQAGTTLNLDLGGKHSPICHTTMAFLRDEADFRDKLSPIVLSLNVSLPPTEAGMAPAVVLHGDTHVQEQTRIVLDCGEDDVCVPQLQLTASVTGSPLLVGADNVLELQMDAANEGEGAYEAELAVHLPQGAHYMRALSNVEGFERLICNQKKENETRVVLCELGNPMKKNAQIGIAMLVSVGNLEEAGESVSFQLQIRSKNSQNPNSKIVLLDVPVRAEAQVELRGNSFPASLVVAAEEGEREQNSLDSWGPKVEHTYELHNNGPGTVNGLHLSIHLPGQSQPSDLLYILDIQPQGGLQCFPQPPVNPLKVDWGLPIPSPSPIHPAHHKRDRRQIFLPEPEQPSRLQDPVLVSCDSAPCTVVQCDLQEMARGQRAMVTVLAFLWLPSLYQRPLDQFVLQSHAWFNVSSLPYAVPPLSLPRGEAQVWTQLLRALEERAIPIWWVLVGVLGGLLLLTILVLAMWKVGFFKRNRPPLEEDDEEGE
UniProt Q12906, whole entry, looked up: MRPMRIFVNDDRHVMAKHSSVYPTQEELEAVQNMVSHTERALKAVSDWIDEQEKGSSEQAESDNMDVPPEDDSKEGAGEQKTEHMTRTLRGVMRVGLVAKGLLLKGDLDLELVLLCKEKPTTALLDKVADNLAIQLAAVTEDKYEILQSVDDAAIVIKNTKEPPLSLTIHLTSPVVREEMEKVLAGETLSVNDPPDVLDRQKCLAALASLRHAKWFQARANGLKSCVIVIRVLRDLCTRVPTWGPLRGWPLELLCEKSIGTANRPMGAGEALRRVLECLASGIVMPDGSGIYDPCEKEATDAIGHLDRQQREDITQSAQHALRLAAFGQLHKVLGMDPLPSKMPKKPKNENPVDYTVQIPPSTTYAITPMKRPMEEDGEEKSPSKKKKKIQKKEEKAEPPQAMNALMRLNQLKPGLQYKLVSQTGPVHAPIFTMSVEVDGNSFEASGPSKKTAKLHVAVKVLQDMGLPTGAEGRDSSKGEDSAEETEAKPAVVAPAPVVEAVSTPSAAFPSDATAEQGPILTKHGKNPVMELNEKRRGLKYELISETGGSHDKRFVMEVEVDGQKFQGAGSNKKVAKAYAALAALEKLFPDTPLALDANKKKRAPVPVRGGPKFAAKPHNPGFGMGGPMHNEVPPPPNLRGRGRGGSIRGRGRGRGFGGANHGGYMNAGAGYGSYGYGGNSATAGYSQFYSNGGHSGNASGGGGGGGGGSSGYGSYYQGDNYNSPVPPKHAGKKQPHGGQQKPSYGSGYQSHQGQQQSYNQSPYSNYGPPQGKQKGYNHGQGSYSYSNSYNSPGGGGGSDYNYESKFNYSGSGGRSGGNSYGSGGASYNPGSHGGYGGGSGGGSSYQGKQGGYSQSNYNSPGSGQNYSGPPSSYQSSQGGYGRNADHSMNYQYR
UniProt Q96LB3: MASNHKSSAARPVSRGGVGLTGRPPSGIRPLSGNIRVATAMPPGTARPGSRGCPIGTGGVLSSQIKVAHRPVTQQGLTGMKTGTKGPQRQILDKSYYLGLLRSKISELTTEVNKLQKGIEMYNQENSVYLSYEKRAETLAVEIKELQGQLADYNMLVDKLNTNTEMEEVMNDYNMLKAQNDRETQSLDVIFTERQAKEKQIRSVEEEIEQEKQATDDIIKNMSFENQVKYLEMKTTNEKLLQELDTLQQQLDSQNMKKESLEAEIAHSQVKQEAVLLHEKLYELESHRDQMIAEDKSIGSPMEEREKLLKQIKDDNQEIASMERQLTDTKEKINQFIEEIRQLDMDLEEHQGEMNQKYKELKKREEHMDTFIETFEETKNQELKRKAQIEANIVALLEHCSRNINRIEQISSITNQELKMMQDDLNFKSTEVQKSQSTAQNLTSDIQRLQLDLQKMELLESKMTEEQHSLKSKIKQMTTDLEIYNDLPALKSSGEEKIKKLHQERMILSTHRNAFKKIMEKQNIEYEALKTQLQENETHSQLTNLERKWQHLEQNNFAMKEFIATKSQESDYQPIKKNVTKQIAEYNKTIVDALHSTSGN
UniProt P38570: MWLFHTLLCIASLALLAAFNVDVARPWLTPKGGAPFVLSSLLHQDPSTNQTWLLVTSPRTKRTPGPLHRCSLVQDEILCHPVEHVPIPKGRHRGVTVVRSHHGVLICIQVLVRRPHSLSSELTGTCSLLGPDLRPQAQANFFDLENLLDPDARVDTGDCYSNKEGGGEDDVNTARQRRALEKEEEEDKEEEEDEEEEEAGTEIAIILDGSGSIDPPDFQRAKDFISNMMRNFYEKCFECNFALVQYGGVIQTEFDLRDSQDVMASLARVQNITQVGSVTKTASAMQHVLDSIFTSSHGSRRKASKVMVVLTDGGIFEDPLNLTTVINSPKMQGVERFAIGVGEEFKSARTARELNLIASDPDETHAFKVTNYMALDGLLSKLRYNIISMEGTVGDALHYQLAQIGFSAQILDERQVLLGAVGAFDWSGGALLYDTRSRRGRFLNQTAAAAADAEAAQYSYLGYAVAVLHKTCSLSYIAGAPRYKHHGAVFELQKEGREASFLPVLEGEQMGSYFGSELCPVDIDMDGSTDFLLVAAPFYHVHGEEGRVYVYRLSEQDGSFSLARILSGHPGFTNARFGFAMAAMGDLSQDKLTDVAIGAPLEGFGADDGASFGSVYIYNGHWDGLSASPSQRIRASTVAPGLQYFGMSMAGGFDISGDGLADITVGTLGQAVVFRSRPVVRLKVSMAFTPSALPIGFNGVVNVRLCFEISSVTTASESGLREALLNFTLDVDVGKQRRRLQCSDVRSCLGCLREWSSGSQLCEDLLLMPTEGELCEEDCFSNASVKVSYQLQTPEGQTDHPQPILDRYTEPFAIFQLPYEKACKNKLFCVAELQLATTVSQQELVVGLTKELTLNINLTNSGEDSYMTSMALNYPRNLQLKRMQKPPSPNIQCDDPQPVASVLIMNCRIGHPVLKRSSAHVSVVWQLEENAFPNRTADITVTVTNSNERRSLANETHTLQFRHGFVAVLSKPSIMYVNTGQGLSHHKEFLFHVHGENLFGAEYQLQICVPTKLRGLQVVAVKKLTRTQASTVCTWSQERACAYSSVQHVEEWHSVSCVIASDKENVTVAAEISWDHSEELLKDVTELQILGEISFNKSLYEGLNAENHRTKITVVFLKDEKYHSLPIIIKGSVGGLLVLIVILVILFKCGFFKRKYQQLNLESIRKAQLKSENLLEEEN
UniProt Q14624: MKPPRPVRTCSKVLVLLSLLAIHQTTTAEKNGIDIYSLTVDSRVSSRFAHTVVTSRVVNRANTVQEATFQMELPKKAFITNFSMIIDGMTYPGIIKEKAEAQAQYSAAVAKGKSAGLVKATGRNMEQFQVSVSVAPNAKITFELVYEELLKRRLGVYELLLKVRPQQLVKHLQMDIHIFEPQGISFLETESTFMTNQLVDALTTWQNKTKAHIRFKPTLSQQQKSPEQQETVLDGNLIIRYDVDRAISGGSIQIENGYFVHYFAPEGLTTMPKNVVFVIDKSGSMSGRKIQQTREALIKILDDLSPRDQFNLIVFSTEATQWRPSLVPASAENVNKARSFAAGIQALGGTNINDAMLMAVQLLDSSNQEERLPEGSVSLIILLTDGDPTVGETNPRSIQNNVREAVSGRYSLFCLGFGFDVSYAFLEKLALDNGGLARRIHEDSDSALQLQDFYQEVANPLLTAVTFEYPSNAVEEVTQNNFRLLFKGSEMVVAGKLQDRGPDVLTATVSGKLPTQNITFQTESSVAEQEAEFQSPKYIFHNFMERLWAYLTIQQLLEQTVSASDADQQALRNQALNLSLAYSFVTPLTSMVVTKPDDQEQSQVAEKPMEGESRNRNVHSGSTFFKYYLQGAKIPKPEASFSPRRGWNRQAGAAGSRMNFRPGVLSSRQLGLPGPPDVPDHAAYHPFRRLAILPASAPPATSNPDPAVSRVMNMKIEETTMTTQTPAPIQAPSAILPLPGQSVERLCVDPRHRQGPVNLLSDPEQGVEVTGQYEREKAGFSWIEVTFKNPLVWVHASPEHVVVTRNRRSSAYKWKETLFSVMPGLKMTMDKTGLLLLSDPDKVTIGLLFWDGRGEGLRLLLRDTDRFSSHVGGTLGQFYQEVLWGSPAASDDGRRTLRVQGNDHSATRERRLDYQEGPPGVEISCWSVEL
UniProt P0DMQ5: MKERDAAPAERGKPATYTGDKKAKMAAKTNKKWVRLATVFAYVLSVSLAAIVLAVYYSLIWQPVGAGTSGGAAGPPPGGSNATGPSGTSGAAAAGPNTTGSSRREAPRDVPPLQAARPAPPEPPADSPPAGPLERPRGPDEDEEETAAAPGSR
UniProt P32019: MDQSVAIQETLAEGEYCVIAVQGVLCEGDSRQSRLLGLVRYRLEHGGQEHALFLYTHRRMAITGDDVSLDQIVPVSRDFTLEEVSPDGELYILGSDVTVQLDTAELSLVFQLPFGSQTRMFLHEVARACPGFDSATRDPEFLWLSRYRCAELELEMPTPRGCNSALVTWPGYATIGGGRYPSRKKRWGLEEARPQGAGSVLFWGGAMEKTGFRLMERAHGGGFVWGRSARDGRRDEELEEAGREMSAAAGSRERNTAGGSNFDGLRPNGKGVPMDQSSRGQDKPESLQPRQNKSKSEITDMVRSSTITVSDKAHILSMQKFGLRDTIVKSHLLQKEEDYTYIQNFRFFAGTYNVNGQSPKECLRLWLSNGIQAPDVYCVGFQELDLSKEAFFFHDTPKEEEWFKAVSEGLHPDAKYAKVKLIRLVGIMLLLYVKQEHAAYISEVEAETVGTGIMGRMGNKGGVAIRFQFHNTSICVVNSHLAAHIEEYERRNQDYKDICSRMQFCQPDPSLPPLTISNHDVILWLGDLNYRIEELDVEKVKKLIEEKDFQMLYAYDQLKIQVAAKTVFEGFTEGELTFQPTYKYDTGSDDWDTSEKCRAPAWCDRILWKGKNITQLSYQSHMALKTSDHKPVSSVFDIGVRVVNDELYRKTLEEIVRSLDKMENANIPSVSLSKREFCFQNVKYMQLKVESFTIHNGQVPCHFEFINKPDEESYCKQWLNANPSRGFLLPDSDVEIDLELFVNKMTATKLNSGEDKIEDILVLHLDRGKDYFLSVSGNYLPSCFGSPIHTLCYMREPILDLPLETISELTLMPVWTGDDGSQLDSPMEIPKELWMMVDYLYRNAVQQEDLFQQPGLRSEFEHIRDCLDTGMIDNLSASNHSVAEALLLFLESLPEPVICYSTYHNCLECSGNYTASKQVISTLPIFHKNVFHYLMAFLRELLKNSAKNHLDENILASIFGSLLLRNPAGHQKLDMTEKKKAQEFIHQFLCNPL
UniProt Q16891: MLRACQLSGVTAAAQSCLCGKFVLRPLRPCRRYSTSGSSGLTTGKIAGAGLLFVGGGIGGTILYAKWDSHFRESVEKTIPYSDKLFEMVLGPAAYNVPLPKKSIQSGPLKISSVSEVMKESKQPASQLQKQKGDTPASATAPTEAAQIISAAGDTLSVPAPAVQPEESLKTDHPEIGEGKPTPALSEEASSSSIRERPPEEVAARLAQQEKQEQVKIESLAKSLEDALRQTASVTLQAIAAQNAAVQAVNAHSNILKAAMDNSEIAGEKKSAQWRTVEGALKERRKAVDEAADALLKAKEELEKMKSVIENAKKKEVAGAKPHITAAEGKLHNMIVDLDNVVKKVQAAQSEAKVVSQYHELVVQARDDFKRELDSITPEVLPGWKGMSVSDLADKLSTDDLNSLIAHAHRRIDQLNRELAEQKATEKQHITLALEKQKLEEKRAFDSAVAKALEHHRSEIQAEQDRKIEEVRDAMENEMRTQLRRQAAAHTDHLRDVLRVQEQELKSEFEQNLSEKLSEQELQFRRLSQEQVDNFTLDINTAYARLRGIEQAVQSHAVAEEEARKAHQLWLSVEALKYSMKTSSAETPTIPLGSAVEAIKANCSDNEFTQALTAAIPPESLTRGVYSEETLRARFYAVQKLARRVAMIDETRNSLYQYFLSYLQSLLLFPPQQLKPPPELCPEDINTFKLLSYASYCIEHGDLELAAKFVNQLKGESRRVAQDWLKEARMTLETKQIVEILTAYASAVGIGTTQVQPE

Key:
Assay in all cases: log2 fold change, soluble protein after heating vs DMSO (PISA); higher = thermal stabilisation; K562 cells, 10 uM, 30 min; active = over 0.2 and 3.5 SD of the protein, either way, in both replicates (recomputed)
[1] = compound: CS(=O)(=O)c1ccc(-c2cnc(N)c(C(=O)Nc3ccccc3)n2)cc1
Outline: (§1)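 For each measurement, 10 μM compound was applied for 30 min to K562 cells at 2×10^6 cells/mL. Aliquots were heated for 3 min across 48°C-58°C, pooled, and extracted in PBS with 0.5% NP-40 at 4°C; the supernatant after 21,000xg for 90 min was soluble protein. This was quantified by TMTpro 16plex LC-MS/MS with channel sums equalised, and thermal stability was reported relative to control samples from duplicates, on a log2 fold-change scale.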

crizotinib = compound: C[C@@H](Oc1cc(-c2cnn(C3CCNCC3)c2)cnc1N)c1c(Cl)ccc(F)c1Cl [crizotinib]
Outline: as §1

[2] = compound: C[C@@H]1COCCN1C2=NC(=NC(=C2)C3(CC3)S(=O)(=O)C)C4=C5C=CNC5=CC=C4
Outline: as §1

[3] = compound: C[C@H](C1=CC=C(C=C1)C(=O)NC2=C3C=CNC3=NC=C2)N
Outline: as §1

gandotinib = compound: Cc1cc(Nc2cc(CN3CCOCC3)c3nc(C)c(Cc4ccc(Cl)cc4F)n3n2)n[nH]1 [gandotinib]
Outline: as §1

[4] = compound: Cc1cc(SCc2sc(-c3ccc(C(F)(F)F)cc3)nc2C)ccc1OCC(=O)O
Outline: as §1

doramapimod = compound: Cc1ccc(-n2nc(C(C)(C)C)cc2NC(=O)Nc2ccc(OCCN3CCOCC3)c3ccccc23)cc1 [doramapimod]
Outline: as §1

[5] = compound: Cc1cccc(CC(=O)N2CCc3c2ccc(-c2cn(C)c4ncnc(N)c24)c3F)n1
Outline: as §1

dasatinib = compound: Cc1nc(Nc2ncc(C(=O)Nc3c(C)cccc3Cl)s2)cc(N2CCN(CCO)CC2)n1 [dasatinib]
Outline: as §1

[6] = compound: Cn1cc(-c2ccc3c(c2)CCN3C(=O)Cc2cccc(C(F)(F)F)c2)c2c(N)ncnc21
Outline: as §1

tipifarnib = compound: Cn1cncc1[C@@](N)(c1ccc(Cl)cc1)c1ccc2c(c1)c(-c1cccc(Cl)c1)cc(=O)n2C [tipifarnib]
Outline: as §1

ispinesib = compound: Cc1ccc(C(=O)N(CCCN)[C@@H](c2nc3cc(Cl)ccc3c(=O)n2Cc2ccccc2)C(C)C)cc1 [ispinesib]
Outline: as §1

nilotinib = compound: Cc1cn(-c2cc(NC(=O)c3ccc(C)c(Nc4nccc(-c5cccnc5)n4)c3)cc(C(F)(F)F)c2)cn1 [nilotinib]
Outline: as §1

[7] = compound: Cc1nc(Nc2n[nH]c3c2CN(C(=O)N[C@H](CN(C)C)c2ccccc2)C3(C)C)c2sccc2n1
Outline: as §1

[8] = compound: Cc1ncc(-c2ccnc(Nc3ccc(S(C)(=O)=O)cc3)n2)n1C(C)C
Outline: as §1

[9] = compound: Cn1cc(-c2ccc3nnc(C(F)(F)c4ccc5ncccc5c4)n3n2)cn1
Outline: as §1

bafetinib = compound: Cc1ccc(NC(=O)c2ccc(CN3CC[C@H](N(C)C)C3)c(C(F)(F)F)c2)cc1Nc1nccc(-c2cncnc2)n1 [bafetinib]
Outline: as §1

mubritinib = compound: FC(F)(F)c1ccc(/C=C/c2nc(COc3ccc(CCCCn4ccnn4)cc3)co2)cc1 [mubritinib]
Outline: as §1

tozasertib = compound: Cc1cc(Nc2cc(N3CCN(C)CC3)nc(Sc3ccc(NC(=O)C4CC4)cc3)n2)n[nH]1 [tozasertib]
Outline: as §1

| Target | log2 fold change [1] | log2 fold change (crizotinib) | log2 fold change [2] | log2 fold change [3] | log2 fold change (gandotinib) | log2 fold change [4] | log2 fold change (doramapimod) | log2 fold change [5] | log2 fold change (dasatinib) | log2 fold change [6] | log2 fold change (tipifarnib) | log2 fold change (ispinesib) | log2 fold change (nilotinib) | log2 fold change [7] | log2 fold change [8] | log2 fold change [9] | log2 fold change (bafetinib) | log2 fold change (mubritinib) | log2 fold change (tozasertib) |
| --- | --- | --- | --- | --- | --- | --- | --- | --- | --- | --- | --- | --- | --- | --- | --- | --- | --- | --- | --- |
| IGFBP3 isoform 2 (UniProt P17936) | inactive: -0.097 | inactive: -0.176 | inactive: -0.063 | inactive: -0.149 | inactive: -0.545 | inactive: 0.027 | inactive: -0.243 | inactive: 0.043 | inactive: -0.001 | inactive: 0.106 | inactive: -0.087 | – | – | – | – | – | – | – | – |
| ITGA2B (UniProt P08514) | inactive: -0.076 | inactive: -0.068 | inactive: -0.077 | inactive: 0.045 | inactive: 0.283 | inactive: 0 | inactive: 0.031 | inactive: 0.256 | inactive: 0.012 | inactive: -0.122 | inactive: 0.073 | inactive: -0.088 | inactive: -0.04 | inactive: -0.013 | inactive: -0.151 | inactive: -0.051 | – | – | – |
| ILF3 isoform 7 (UniProt Q12906) | inactive: -0.159 | inactive: -0.074 | inactive: -0.181 | inactive: 0.286 | inactive: 0.1 | inactive: -0.001 | inactive: 0.118 | inactive: -0.028 | inactive: 0.155 | inactive: -0.179 | inactive: 0.057 | inactive: 0.034 | inactive: -0.02 | inactive: 0.244 | inactive: 0.297 | inactive: -0.089 | inactive: 0.082 | inactive: -0.031 | – |
| IFT74 (UniProt Q96LB3) | inactive: 0.21 | inactive: -0.04 | inactive: 0.014 | inactive: 0.088 | inactive: -0.02 | inactive: -0.094 | inactive: 0.095 | inactive: 0.015 | inactive: 0.057 | inactive: 0.015 | inactive: -0.052 | inactive: -0.133 | inactive: 0.166 | inactive: 0.063 | inactive: 0.008 | inactive: -0.053 | inactive: -0.095 | inactive: 0.186 | – |
| ITGAE (UniProt P38570) | inactive: 0.182 | inactive: -0.04 | inactive: 0.063 | inactive: 0.045 | inactive: 0.136 | – | inactive: 0.04 | inactive: -0.209 | – | inactive: 0.066 | inactive: 0.004 | inactive: -0.117 | inactive: -0.045 | inactive: 0.05 | inactive: 0.017 | inactive: 0.022 | inactive: -0.203 | inactive: 0.131 | – |
| INPP1 (UniProt P49441) | inactive: 0.041 | inactive: -0.016 | inactive: -0.012 | inactive: -0.028 | inactive: -0.084 | inactive: -0.043 | inactive: -0.018 | inactive: 0.094 | inactive: 0.027 | inactive: 0.037 | inactive: -0.135 | inactive: 0.052 | inactive: -0.001 | inactive: 0.067 | inactive: 0.053 | inactive: 0.027 | inactive: 0.003 | inactive: 0.15 | – |
| IRF2BPL (UniProt Q9H1B7) | inactive: -0.034 | inactive: 0.133 | inactive: 0.249 | inactive: -0.005 | inactive: -0.041 | inactive: 0.066 | inactive: -0.061 | inactive: 0.012 | inactive: -0.034 | inactive: 0.083 | inactive: -0.067 | inactive: -0.083 | inactive: -0.07 | inactive: -0.034 | inactive: -0.029 | inactive: -0.084 | inactive: -0.038 | inactive: -0.055 | – |
| IKZF1 (UniProt Q13422) | inactive: -0.065 | inactive: -0.048 | inactive: 0.008 | inactive: -0.069 | inactive: -0.038 | inactive: 0.039 | inactive: -0.016 | inactive: -0.004 | inactive: -0.121 | inactive: 0.072 | inactive: -0.026 | inactive: -0.186 | inactive: 0.237 | inactive: -0.347 | inactive: -0.112 | inactive: 0.119 | inactive: -0.062 | inactive: -0.07 | – |
| IFI30 (UniProt P13284) | inactive: 0.013 | inactive: -0.011 | inactive: -0.083 | inactive: -0.02 | inactive: 0.042 | inactive: 0.035 | inactive: -0.044 | inactive: 0.007 | inactive: 0.016 | inactive: 0.097 | inactive: 0.04 | inactive: 0.002 | inactive: 0.068 | inactive: 0.015 | inactive: -0.049 | inactive: 0.002 | active: -0.41 | inactive: 0.044 | – |
| ITIH4 (UniProt Q14624) | inactive: -0.107 | inactive: -0.102 | inactive: 0.129 | inactive: -0.005 | inactive: -0.387 | inactive: -0.031 | inactive: -0.291 | inactive: 0.117 | inactive: 0.039 | inactive: 0.148 | inactive: -0.038 | inactive: -0.402 | inactive: -0.259 | inactive: 0.194 | inactive: 0.225 | inactive: 0.114 | inactive: -0.319 | inactive: -0.134 | – |
| IGFBP4 (UniProt P22692) | inactive: -0.066 | inactive: 0.064 | inactive: 0.022 | inactive: -0.114 | inactive: -0.229 | inactive: -0.007 | inactive: 0 | inactive: -0.173 | inactive: 0.14 | inactive: 0.116 | inactive: 0.033 | inactive: -0.233 | inactive: 0.077 | inactive: -0.06 | inactive: -0.007 | inactive: -0.102 | inactive: -0.126 | inactive: -0.15 | – |
| IGF2R (UniProt P11717) | inactive: 0.031 | active: -0.871 | inactive: -0.035 | inactive: -0.035 | inactive: 0.017 | inactive: 0.019 | inactive: -0.01 | inactive: 0.021 | inactive: -0.023 | inactive: 0 | inactive: 0.045 | inactive: -0.115 | inactive: -0.02 | inactive: -0.087 | inactive: 0.021 | inactive: 0.023 | active: -0.338 | inactive: 0.003 | – |
| INTS7 (UniProt Q9NVH2) | inactive: 0.009 | inactive: -0.133 | inactive: -0.053 | inactive: -0.054 | inactive: 0.211 | inactive: 0.014 | inactive: -0.091 | inactive: 0.033 | inactive: -0.109 | inactive: -0.021 | inactive: -0.132 | inactive: -0.036 | inactive: -0.054 | inactive: -0.025 | inactive: 0.114 | inactive: 0.017 | inactive: 0.02 | inactive: -0.123 | – |
| IK (UniProt Q13123) | inactive: -0.041 | inactive: 0.021 | inactive: -0.037 | inactive: 0.186 | inactive: 0.022 | inactive: -0.007 | inactive: 0.016 | inactive: -0.01 | inactive: -0.025 | inactive: -0.007 | inactive: 0.003 | inactive: 0.065 | inactive: -0.062 | inactive: -0.067 | inactive: 0.037 | inactive: -0.109 | inactive: 0.013 | inactive: -0.067 | – |
| INAFM2 (UniProt P0DMQ5) | inactive: 0.033 | inactive: 0.456 | inactive: -0.017 | inactive: -0.017 | – | – | inactive: -0.136 | – | – | inactive: 0.068 | inactive: 0.022 | inactive: 0.043 | inactive: -0.052 | inactive: -0.02 | inactive: -0.05 | inactive: -0.15 | inactive: -0.284 | inactive: -0.1 | inactive: -0.022 |
| INPP5B (UniProt P32019) | inactive: 0.057 | inactive: -0.096 | inactive: -0.02 | inactive: 0.042 | inactive: 0.017 | inactive: 0.029 | inactive: 0.095 | inactive: -0.059 | inactive: -0.111 | inactive: -0.005 | inactive: 0.072 | inactive: -0.005 | inactive: -0.077 | inactive: 0.001 | inactive: 0.014 | inactive: -0.032 | inactive: 0.103 | inactive: 0.018 | – |
| IFT80 isoform 3 (UniProt Q9P2H3) | inactive: -0.019 | inactive: -0.01 | inactive: 0.069 | inactive: -0.031 | inactive: 0.053 | inactive: 0.05 | inactive: 0.069 | inactive: 0.077 | inactive: -0.148 | inactive: 0.036 | inactive: -0.07 | inactive: -0.051 | inactive: -0.059 | inactive: -0.02 | inactive: 0.114 | inactive: 0.039 | inactive: -0.127 | inactive: 0.17 | – |
| IMMT isoform 4 (UniProt Q16891) | inactive: 0.017 | inactive: -0.102 | inactive: 0.084 | inactive: -0.012 | inactive: -0.093 | inactive: 0 | inactive: -0.014 | inactive: 0.018 | inactive: -0.019 | inactive: 0.015 | inactive: -0.03 | inactive: -0.202 | inactive: -0.038 | inactive: 0.004 | inactive: 0.003 | inactive: 0.018 | inactive: -0.119 | inactive: 0.012 | – |
